Test results: paper PMC8443744
These are yes or no findings as the source states them, for the method shown. In cells and extracts the contact can be indirect. Some results given as binding are weak or reduced against the parent protein; the word gives no strength. For some assays here: Sequences can lack the tags named with a protein.

Chains of the proteins cited; added tags and fusions are not shown.
UniProt Q14145: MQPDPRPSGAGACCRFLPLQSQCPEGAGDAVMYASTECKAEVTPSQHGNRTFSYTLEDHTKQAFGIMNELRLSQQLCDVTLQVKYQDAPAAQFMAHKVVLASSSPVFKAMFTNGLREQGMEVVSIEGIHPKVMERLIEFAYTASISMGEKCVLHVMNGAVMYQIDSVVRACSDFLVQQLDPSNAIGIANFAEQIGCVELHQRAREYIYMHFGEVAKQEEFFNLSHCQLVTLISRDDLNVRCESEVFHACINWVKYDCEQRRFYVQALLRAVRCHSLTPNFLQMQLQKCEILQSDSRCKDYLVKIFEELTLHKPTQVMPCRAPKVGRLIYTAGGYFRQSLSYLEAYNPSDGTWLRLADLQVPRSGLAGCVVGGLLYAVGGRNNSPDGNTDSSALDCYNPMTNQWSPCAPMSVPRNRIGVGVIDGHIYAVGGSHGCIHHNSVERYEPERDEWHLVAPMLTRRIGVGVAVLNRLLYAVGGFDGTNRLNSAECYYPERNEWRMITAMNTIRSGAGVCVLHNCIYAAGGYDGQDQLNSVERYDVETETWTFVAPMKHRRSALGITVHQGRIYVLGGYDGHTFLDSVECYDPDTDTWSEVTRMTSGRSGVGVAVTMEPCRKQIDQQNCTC
UniProt O95602: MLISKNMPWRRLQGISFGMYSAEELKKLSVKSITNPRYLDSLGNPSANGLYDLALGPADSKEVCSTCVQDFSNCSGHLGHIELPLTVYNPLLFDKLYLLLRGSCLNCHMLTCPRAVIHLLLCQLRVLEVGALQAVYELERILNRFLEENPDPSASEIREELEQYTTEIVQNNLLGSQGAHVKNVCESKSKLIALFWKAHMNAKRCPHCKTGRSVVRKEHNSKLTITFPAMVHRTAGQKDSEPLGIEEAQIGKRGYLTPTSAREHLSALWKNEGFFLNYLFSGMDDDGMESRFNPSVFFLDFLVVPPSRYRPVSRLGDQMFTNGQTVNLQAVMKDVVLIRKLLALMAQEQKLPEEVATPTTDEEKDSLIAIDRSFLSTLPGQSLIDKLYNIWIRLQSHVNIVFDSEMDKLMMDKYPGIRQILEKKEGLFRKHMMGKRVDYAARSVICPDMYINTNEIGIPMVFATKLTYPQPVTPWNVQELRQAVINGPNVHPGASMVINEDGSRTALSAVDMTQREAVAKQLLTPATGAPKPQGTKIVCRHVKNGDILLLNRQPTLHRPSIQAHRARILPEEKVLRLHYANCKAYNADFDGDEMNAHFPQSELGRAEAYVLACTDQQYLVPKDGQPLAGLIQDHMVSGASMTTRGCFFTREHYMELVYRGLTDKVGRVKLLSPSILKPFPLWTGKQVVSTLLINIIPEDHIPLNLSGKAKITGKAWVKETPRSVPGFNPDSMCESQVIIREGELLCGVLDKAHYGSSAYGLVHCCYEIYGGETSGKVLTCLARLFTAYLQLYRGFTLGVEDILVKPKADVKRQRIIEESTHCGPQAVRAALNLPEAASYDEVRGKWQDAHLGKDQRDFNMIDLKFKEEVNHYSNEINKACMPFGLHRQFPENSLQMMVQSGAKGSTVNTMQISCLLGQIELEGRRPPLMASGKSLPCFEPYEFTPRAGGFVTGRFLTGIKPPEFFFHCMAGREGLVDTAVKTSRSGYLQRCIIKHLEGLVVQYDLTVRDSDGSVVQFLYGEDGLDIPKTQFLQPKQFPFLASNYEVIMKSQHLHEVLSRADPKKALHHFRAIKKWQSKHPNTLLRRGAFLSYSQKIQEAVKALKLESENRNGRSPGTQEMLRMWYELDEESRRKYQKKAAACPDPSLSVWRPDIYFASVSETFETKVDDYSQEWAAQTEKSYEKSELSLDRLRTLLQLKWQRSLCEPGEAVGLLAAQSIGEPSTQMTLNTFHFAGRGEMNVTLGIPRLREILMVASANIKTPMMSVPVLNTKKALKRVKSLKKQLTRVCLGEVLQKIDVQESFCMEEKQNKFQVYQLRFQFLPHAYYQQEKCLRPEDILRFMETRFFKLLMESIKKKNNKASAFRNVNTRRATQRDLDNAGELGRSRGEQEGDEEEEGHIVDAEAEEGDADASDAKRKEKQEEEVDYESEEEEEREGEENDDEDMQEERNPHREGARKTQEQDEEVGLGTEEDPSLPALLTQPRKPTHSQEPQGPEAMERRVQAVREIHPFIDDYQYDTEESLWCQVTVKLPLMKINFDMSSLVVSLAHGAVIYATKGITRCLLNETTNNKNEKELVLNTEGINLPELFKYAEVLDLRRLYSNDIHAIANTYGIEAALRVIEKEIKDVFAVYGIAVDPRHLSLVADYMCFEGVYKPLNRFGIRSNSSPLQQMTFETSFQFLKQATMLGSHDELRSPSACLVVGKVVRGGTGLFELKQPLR

Key:
[1] = target: senataxin (SETX), endogenous (human (endogenous in MRC-5)) (UniProt Q7Z333); test: proximity ligation; Duolink PLA in methanol-fixed MRC-5 cells with antibodies against the two endogenous proteins; cells mock treated (DMSO), 25 uM CPT for 10 min, or 50 uM alpha-amanitin overnight followed by CPT
eGFP-SETX^1–667 (human) = target: T1, eGFP-SETX^1–667 (human) (UniProt Q7Z333); test: co-IP; GFP pull-down with GFP-Trap_MA beads from HEK-293 lysates expressing eGFP-SETX 1-667 or empty vector-eGFP; 10 mM Tris-HCl pH 7.5, 150 mM NaCl, 0.5 mM EDTA, 2 h at 4 C; immunoblotting
T1 sequence: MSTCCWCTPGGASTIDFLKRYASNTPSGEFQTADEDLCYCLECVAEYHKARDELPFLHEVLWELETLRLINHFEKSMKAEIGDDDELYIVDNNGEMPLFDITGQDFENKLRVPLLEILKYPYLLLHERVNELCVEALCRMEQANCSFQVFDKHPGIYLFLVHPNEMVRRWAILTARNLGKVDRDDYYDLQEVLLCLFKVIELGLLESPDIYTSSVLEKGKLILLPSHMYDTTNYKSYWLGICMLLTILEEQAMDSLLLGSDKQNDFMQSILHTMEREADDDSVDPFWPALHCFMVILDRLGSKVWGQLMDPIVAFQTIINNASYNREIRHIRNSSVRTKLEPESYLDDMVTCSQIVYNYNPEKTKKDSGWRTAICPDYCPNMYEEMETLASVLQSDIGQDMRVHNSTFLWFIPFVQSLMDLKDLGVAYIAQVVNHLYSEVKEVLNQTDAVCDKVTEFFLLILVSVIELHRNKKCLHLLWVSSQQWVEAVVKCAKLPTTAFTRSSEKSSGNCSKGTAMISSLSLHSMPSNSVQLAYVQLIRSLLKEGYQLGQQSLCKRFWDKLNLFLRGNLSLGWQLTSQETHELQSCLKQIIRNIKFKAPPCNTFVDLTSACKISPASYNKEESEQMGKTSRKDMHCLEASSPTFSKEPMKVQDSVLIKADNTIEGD

| binding (eGFP-SETX^1–667 (human)) | Substance | binding [1] |
| --- | --- | --- |
|  | KEAP1, endogenous (from UniProt Q14145 1-624) | binds |
| binds | largest subunit of RNA polymerase I (RPA-194), endogenous (from UniProt O95602 1-1720) |  |
